Measurements published in PubChem BioAssay AID246 (DTP/NCI, 2004).
The list does not hold the whole screen: it gathers tests that were run many times, whatever their T/C, doses with no T/C, and many T/C values between a quarter and a half above the control. Further doses and runs are listed elsewhere. T/C gives the treated animals as a percentage of the vehicle group. Some doses have a count of surviving animals in place of a T/C: the source files T/C as zero there, which appears to mark a toxic dose or a test without result, not a measured value. Some survivor counts are full or nearly so, which does not show that the dose was tolerated: survival well below the control is almost never listed, so the zero probably covers shortened survival too. Survivors were counted at the toxicity check, usually on the fifth day, unless a day is given; later deaths do not show. Schedule codes are those of the source, taken here to give the interval after Q, in days (D) or hours (H), and the number of doses after X. Some schedules carry Z or #; the key to these is not given. Some structures stand for samples that the source files as different forms (salt, stereo form or complex); doses refer to the form tested. For survival time, this PubChem deposit counts one and a half times the control or more as active, and values a quarter to a half above the control carry no call in these data; other NCI protocols may use other cut-offs. Some entries were tested several times; their values stand side by side, smallest first. Some T/C values carry the count of animals alive at the toxicity check (mostly the fifth day); without a count, all were alive then.

System: BDF1 mice, P1081 chloroleukemia ip, survival T/C
Experiment: NCI In Vivo Anticancer Drug Screen. Data for tumor model P1081 Chloroleukemia (intraperitoneal) in B6D2F1 (BDF1) mice
Details: T/C endpoint: mean survival time, higher T/C = longer survival
Description: The antitumor activity of compounds was measured in mice bearing transplantable tumors. Survival or tumor size were measured and the results are expressed as the measurement made in the treated group (T) divided by the measurement made in the vehicle treated control group (C). The tumor model used in this assay is P1081 Chloroleukemia (intraperitoneal) in B6D2F1 (BDF1) mice

[1] = dose: 16.0 mg/kg/injection, schedule: Q01DX Z (ip), vehicle: carboxymethylcellulose (CMC)
[2] = dose: 0.12 mg/kg/injection, schedule: Q01DX Z (ip), vehicle: saline
[3] = dose: 2.0 mg/kg/injection, schedule: Q01DX Z (ip), vehicle: water
[4] = dose: 4.0 mg/kg/injection, schedule: Q01DX Z (ip), vehicle: water

## O=c1cn[nH]c(=O)[nH]1
[1]
  T/C: 131 % of control [5 of 6 alive]
  survivor count: 6 of 6
dose: 31.25 mg/kg/injection, schedule: Q01DX Z (ip), vehicle: carboxymethylcellulose (CMC)
  T/C: 141 % of control
dose: 62.5 mg/kg/injection, schedule: Q01DX Z (ip), vehicle: carboxymethylcellulose (CMC)
  T/C: 137 % of control
dose: 125.0 mg/kg/injection, schedule: Q01DX010 (ip), vehicle: saline
  survivor count: 6 of 6

## O=C(Nc1ccc(C2=NCCN2)cc1)c1ccc(C(=O)Nc2ccc(C3=NCCN3)cc2)c(Cl)c1
dose: 3.75 mg/kg/injection, schedule: Q01DX Z (ip), vehicle: water
  survivor count: 5 of 6
dose: 15.0 mg/kg/injection, schedule: Q01DX Z (ip), vehicle: water
  T/C: 132 % of control
dose: 60.0 mg/kg/injection, schedule: Q01DX Z (ip), vehicle: water
  survivor count: 4 of 6

## O=c1[nH]c(=O)n(C2CC(O)C(CO)O2)cc1Br (configuration not stated)
dose: 125.0 mg/kg/injection, schedule: Q01DX Z (ip), vehicle: carboxymethylcellulose (CMC)
  survivor count: 6 of 6

## CS(=O)(=O)OCC(O)C(O)COS(C)(=O)=O (configuration not stated)
dose: 750.0 mg/kg/injection, schedule: Q01DX Z (ip), vehicle: saline
  T/C: 140 % of control
dose: 1500.0 mg/kg/injection, schedule: Q01DX Z (ip), vehicle: saline
  T/C: 127 % of control

## C1CN1c1nc(N2CC2)nc(N2CC2)n1
[2]
  T/C: 134 % of control
  survivor count: 6 of 6
dose: 0.25 mg/kg/injection, schedule: Q01DX010 (ip), vehicle: saline
  T/C: 127 % of control
dose: 0.5 mg/kg/injection, schedule: Q01DX010 (ip), vehicle: saline
  T/C: 133 % of control
dose: 1.0 mg/kg/injection, schedule: Q01DX010 (ip), vehicle: saline
  survivor count: 5 of 6

## CC/C(=C(/CC)c1ccc(O)cc1)c1ccc(O)cc1
dose: 31.0 mg/kg/injection, schedule: Q01DX Z (sc), vehicle: steroid suspending solution
  survivor count: 6 of 6
dose: 62.0 mg/kg/injection, schedule: Q01DX Z (sc), vehicle: steroid suspending solution
  survivor count: 6 of 6
dose: 100.0 mg/kg/injection, schedule: Q01DX010 (ip), vehicle: saline
  survivor count: 6 of 6
dose: 125.0 mg/kg/injection, schedule: Q01DX Z (sc), vehicle: steroid suspending solution
  survivor count: 6 of 6
dose: 250.0 mg/kg/injection, schedule: Q01DX Z (sc), vehicle: steroid suspending solution
  survivor count: 6 of 6
dose: 500.0 mg/kg/injection, schedule: Q01DX Z (sc), vehicle: steroid suspending solution
  survivor count: 4 of 6
dose: 1000.0 mg/kg/injection, schedule: Q01DX Z (sc), vehicle: steroid suspending solution
  survivor count: 5 of 6

## Nc1ncnc2c1ccn2C1OC(CO)C(O)C1O (configuration not stated)
dose: 2.5 mg/kg/injection, schedule: Q01DX Z (ip), vehicle: carboxymethylcellulose (CMC)
  survivor count: 6 of 6

## O=c1cnn(C2OC(CO)C(O)C2O)c(=O)[nH]1 (configuration not stated)
dose: 31.0 mg/kg/injection, schedule: Q01DX Z (ip), vehicle: water
  survivor count: 6 of 6
dose: 200.0 mg/kg/injection, schedule: Q01DX010 (ip), vehicle: saline
  T/C: 145 % of control
dose: 400.0 mg/kg/injection, schedule: Q01DX010 (ip), vehicle: saline
  T/C: 140 % of control
dose: 800.0 mg/kg/injection, schedule: Q01DX010 (ip), vehicle: saline
  T/C: 135 % of control [5 of 6 alive]

## C[C@]12C=CC(=O)C=C1CC[C@@H]1[C@@H]2C(=O)C[C@@]2(C)[C@H]1CC[C@]2(O)C(=O)CO
dose: 25.0 mg/kg/injection, schedule: Q01DX Z (sc), vehicle: steroid suspending solution
  T/C: 127 % of control
dose: 50.0 mg/kg/injection, schedule: Q01DX Z (sc), vehicle: steroid suspending solution
  T/C: 131 % of control
dose: 100.0 mg/kg/injection, schedule: Q01DX Z (sc), vehicle: steroid suspending solution
  survivor count: 6 of 6
dose: 200.0 mg/kg/injection, schedule: Q01DX010 (sc), vehicle: steroid suspending solution
  survivor count: 6 of 6
dose: 200.0 mg/kg/injection, schedule: Q01DX Z (sc), vehicle: steroid suspending solution
  survivor count: 4 of 6
dose: 400.0 mg/kg/injection, schedule: Q01DX Z (sc), vehicle: steroid suspending solution
  survivor count: 6 of 6

## CN(C)c1ccc(/C=C/c2ccnc3ccccc23)cc1
dose: 12.5 mg/kg/injection, schedule: Q01DX Z (ip), vehicle: water
  survivor count: 6 of 6
dose: 25.0 mg/kg/injection, schedule: Q01DX Z (ip), vehicle: water
  survivor count: 6 of 6
dose: 50.0 mg/kg/injection, schedule: Q01DX Z (ip), vehicle: water
  survivor count: 5 of 6
dose: 100.0 mg/kg/injection, schedule: Q01DX Z (ip), vehicle: water
  survivor count: 1 of 6
dose: 200.0 mg/kg/injection, schedule: Q01DX Z (ip), vehicle: carboxymethylcellulose (CMC)
  survivor count: 6 of 6
dose: 400.0 mg/kg/injection, schedule: Q01DX Z (ip), vehicle: carboxymethylcellulose (CMC)
  survivor count: 5 of 6

## CC(=O)OCC1OC(n2ncc(=O)[nH]c2=O)C(OC(C)=O)C1OC(C)=O (configuration not stated)
dose: 937.5 mg/kg/injection, schedule: Q01DX Z (ip), vehicle: alkali diluted with saline
  T/C: 127 % of control
dose: 7500.0 mg/kg/injection, schedule: Q01DX Z (ip), vehicle: alkali diluted with saline
  survivor count: 0 of 6

## O[C@H](CN1CC1)[C@@H](O)CN1CC1
dose: 0.06 mg/kg/injection, schedule: Q01DX Z (ip), vehicle: carboxymethylcellulose (CMC)
  T/C: 147 % of control
dose: 31.0 micrograms/kg/injection, schedule: Q01DX Z (ip), vehicle: carboxymethylcellulose (CMC)
  T/C: 126 % of control
dose: 63.0 micrograms/kg/injection, schedule: Q01DX Z (ip), vehicle: carboxymethylcellulose (CMC)
  T/C: 148 % of control
dose: 250.0 micrograms/kg/injection, schedule: Q01DX010 (ip), vehicle: saline
  T/C: 140 % of control
dose: 1000.0 micrograms/kg/injection, schedule: Q01DX010 (ip), vehicle: saline
  survivor count: 6 of 6

## Nc1nc(F)nc2c1ncn2C1OC(CO)C(O)C1O (configuration not stated)
dose: 8.0 mg/kg/injection, schedule: Q01DX010 (ip), vehicle: saline
  survivor count: 6 of 6

## COc1cc2c(c(OC)c1OC)-c1ccc(OC)c(=O)cc1[C@@H](NC(C)=O)CC2
dose: 0.31 mg/kg/injection, schedule: Q01DX Z (ip), vehicle: saline
  T/C: 135 % of control
dose: 1.2 mg/kg/injection, schedule: Q01DX Z (ip), vehicle: saline
  survivor count: 3 of 6
dose: 2.5 mg/kg/injection, schedule: Q01DX Z (ip), vehicle: saline
  survivor count: 0 of 6
dose: 5.0 mg/kg/injection, schedule: Q01DX Z (ip), vehicle: saline
  survivor count: 0 of 6

## O=C(Nc1ccc(C2=NCCCN2)cc1)c1ccc(C(=O)Nc2ccc(C3=NCCCN3)cc2)cc1
dose: 0.25 mg/kg/injection, schedule: Q01DX Z (ip), vehicle: water
  survivor count: 6 of 6
[3]
  T/C: 126 and 147 % of control
  survivor count: 3 of 6
[4]
  T/C: 138 % of control [5 of 6 alive]
  survivor count: 2 of 6
dose: 8.0 mg/kg/injection, schedule: Q01DX Z (ip), vehicle: water
  survivor count: 1 of 6
dose: 16.0 mg/kg/injection, schedule: Q01DX Z (ip), vehicle: water
  survivor count: 1 of 6

## CC(CCC(C)OS(C)(=O)=O)OS(C)(=O)=O (configuration not stated)
dose: 32.0 mg/kg/injection, schedule: Q01DX010 (ip), vehicle: saline
  T/C: 135 % of control
dose: 80.0 mg/kg/injection, schedule: Q01DX Z (ip), vehicle: carboxymethylcellulose (CMC)
  survivor count: 6 of 6

## Oc1cc(CN(CCCl)CCCl)c(O)cc1CN(CCCl)CCCl
dose: 0.24 mg/kg/injection, schedule: Q01DX Z (sc), vehicle: steroid suspending solution
  T/C: 135 % of control [5 of 6 alive]
dose: 0.99 mg/kg/injection, schedule: Q01DX Z (sc), vehicle: steroid suspending solution
  T/C: 132 % of control
dose: 2.5 mg/kg/injection, schedule: Q01DX010 (ip), vehicle: saline
  survivor count: 3 of 6
dose: 3.75 mg/kg/injection, schedule: Q01DX Z (sc), vehicle: steroid suspending solution
  T/C: 128 % of control
dose: 15.0 mg/kg/injection, schedule: Q01DX Z (sc), vehicle: steroid suspending solution
  survivor count: 3 of 6

## Cn1c(N)nc2nc[nH]c2c1=S
dose: 20.0 mg/kg/injection, schedule: Q01DX010 (ip), vehicle: saline
  T/C: 125 % of control
